# In PubChem BioAssay AID540256 (National Center for Advancing Translational Sciences (NCATS), 2011):
# In all, about 300,000 compounds went through this assay and about 3,700 (1.2%) were called active. The inconclusive results got no clear call from the source; some entries with a clear call stand among them for comparison. Calls come from the whole dose curve; tested in HEK293 cells. A potency beside an inconclusive call is a rough fit, not a confirmed value.
# Test: qHTS for Inhibitors of binding or entry into cells for Lassa Virus; note: nearly all actives have a fitted effect of over 50% in size
# Conditions: Lassa virus pseudotype entry inhibition, cell reporter; series mostly up to 37.9 µM
# Potency is the fitted concentration of half-maximal effect.
row,Compound,Potency
1,COCCCn1c(SCc2cccc(C(F)(F)F)c2)nc2cc(OC)c(OC)cc2c1=N,"inconclusive: 0.58 µM [activator, single point]"
2,COc1ccccc1-c1cc(C(=O)Nc2sc3c(c2C#N)CCCC3)no1,"inconclusive: 35.5 µM [activator, single point]"
3,CCN(CC)CCN1C(=O)c2ccccc2NC1c1ccc(N(C)C)cc1 (stereo not given),inactive
4,CCCc1ccc2oc(C(=O)N3CCN(CCC(N)=O)CC3)c(C)c2c1,inactive
5,Cc1ccc(C2CC(c3ccc(NS(C)(=O)=O)cc3)=NN2C(=O)c2ccco2)cc1 (stereo not given),"inconclusive: 10 µM [inhibitor, partial curve]"
6,COc1ccc(C(=O)NCc2nnc(SCC(=O)Nc3ccccc3)n2-c2ccc(F)cc2)cc1,"inconclusive: 2.51 µM [inhibitor, full curve]"
7,CC(C)NCC(O)COc1cccc2[nH]ccc12 (stereo not given),"inconclusive: 9.2 µM [activator, partial curve, poor fit]"
8,CCOc1ccc(NC(=O)CN(C)C(=O)C2(c3ccccc3)CC2)cc1OCC,inactive
9,CCOC(=O)c1c[nH]c2c(Cl)c(Cl)ccc2c1=O,"inconclusive: 0.651 µM [inhibitor, partial curve, poor fit]"
10,CC(=O)Nc1ccc(N(C)C)cc1[N+](=O)[O-],inactive
11,COc1ccc(C(=O)N2CCNC(=O)C2)cc1S(=O)(=O)Nc1ccc(Br)cc1,inactive
12,O=C(COc1ccccc1F)OCc1cc(=O)n2nc(-c3cccs3)sc2n1,"inconclusive: 5.62 µM [activator, single point]"
13,Cc1ccc(NC(=S)NC2CCSc3ccccc32)cc1 (stereo not given),"inconclusive: 6.31 µM [inhibitor, single point]"
14,CS(=O)(=O)N(CC(=O)Nc1ccccc1C(=O)N1CCOCC1)c1cccc(F)c1,inactive
15,O=C(O)c1ccc(CSc2n[nH]c(-c3ccco3)n2)cc1,inactive
16,OC(COc1ccc2ccccc2c1)CN1CCOCC1 (stereo not given),"inconclusive: 14.1 µM [activator, single point]"
17,COc1ccccc1CNC(=O)c1ccc(N2CCCC2)c(NC(=O)NCc2ccccc2)c1,"inconclusive: 14.1 µM [inhibitor, single point]"
18,CCOC(=O)c1cc2oc(C(c3nnnn3C3CCCCC3)N3CCOCC3)cc2[nH]1 (stereo not given),"inconclusive: 25.1 µM [inhibitor, single point]"
19,O=C(O)C1CCCCC1C(=O)Nc1ccc(S(=O)(=O)N2CCOCC2)cc1 (stereo not given),"inconclusive: 12.6 µM [activator, single point]"
20,CCN(CC(=O)Nc1ccccc1C(F)(F)F)C(=O)Cc1sc(C)nc1-c1ccc(F)cc1,inactive
21,COCCNC(=O)c1ccc(N(C)S(=O)(=O)c2ccc(OC)c(OC)c2)cc1,inactive
22,COCCNC(=O)c1c[nH]c2ccc(S(=O)(=O)N3CCc4ccccc43)cc2c1=O,"inconclusive: 10 µM [inhibitor, partial curve, poor fit]"
23,O=C(Nc1cccc(-c2csc(-c3ccccc3)n2)c1)c1cccs1,"inconclusive: 14.6 µM [inhibitor, partial curve, poor fit]"

# Pulled by structure from the list above:
row,Compound,Potency
4,CCCc1ccc2oc(C(=O)N3CCN(CCC(N)=O)CC3)c(C)c2c1,inactive
5,Cc1ccc(C2CC(c3ccc(NS(C)(=O)=O)cc3)=NN2C(=O)c2ccco2)cc1 (stereo not given),"inconclusive: 10 µM [inhibitor, partial curve]"

# Following part.

row,Compound,Potency
1,Nc1cc(=O)nc(SCC(=O)NC2CCCCC2)n1-c1ccccc1,inactive
2,Cc1cc(C)nc(N/C(=N\S(=O)(=O)Cc2ccccc2)Nc2ccccc2Br)n1,active: 4.11 µM
3,Cc1nc(N2CCN(c3ccccn3)CC2)c2c(C)c(C(=O)Nc3ccc(F)c(Cl)c3)sc2n1,"inconclusive: 35.5 µM [inhibitor, single point]"
4,COC(=O)C1=CC(C(=O)c2cccs2)=NN(c2ccc(OC)cc2)C1C(=O)OC (stereo not given),"inconclusive: 22.4 µM [inhibitor, partial curve, poor fit]"
5,CCCCC(=O)Nc1ccc(C(=O)Nc2cc(C(F)(F)F)ccc2Cl)cc1,"inconclusive: 14.1 µM [inhibitor, single point]"
6,N#Cc1cccc(NC(=O)COC(=O)c2ccccc2C(=O)c2ccc(Cl)c([N+](=O)[O-])c2)c1,"inconclusive: 20.6 µM [inhibitor, single point]"
7,COc1cccc(/C=N\NC(=O)c2ccc(Cn3cc(Br)c([N+](=O)[O-])n3)o2)c1O,active: 6.31 µM
8,COc1ccc(C)cc1NC(=O)c1cc(S(=O)(=O)NC2CCCCCC2)ccc1F,inactive
9,COc1ccc(Cn2c(=O)[nH]c3cc(C(=O)N4CCN(c5cc(C)ccc5C)CC4)ccc3c2=O)cc1,inactive
10,O=S(=O)([N-]c1nc2ccccc2nc1-[n+]1ccc(CCCc2ccccc2)cc1)c1cccs1,"inconclusive: 3.98 µM [inhibitor, partial curve, poor fit]"
11,O=C(Nc1ccc(Cl)cc1)OC1CN2CCC1CC2 (stereo not given),"inconclusive: 1.78 µM [activator, full curve, poor fit]"
12,CCSc1cc(N2CCCC2)nc(-c2ccc(C)cc2)n1,"inconclusive: 6.31 µM [activator, partial curve, poor fit]"
13,COc1ccc(S(=O)(=O)N2CCN(CC(=O)Nc3ccccc3OC)CC2)cc1,"inconclusive: 35.5 µM [activator, single point]"
14,C/C(=N\N1CCN(c2ccccc2)CC1)c1ccncc1,"inconclusive: 22.4 µM [inhibitor, partial curve, poor fit]"
15,Cc1ccc(/C=C/C(=O)Nc2nc3ccccc3[nH]2)cc1,inactive
16,O=C(Cc1ccccc1)Nc1ccc(F)cc1,inactive
17,OC1(c2ccc3c(c2)OCO3)CCN(Cc2ccccn2)CC1,inactive
18,CCCCn1c(O)c(N=NC(=O)c2ccncc2)c2cc(Br)ccc21,inactive
19,CC12CCC(=O)N1C(C(=O)Nc1ccccc1N1CCCCC1)CS2 (stereo not given),inactive
20,CCc1cc2c(=O)[nH]c(Cc3ccc(OC)cc3)nc2s1,"inconclusive: 3.98 µM [inhibitor, full curve]"
21,CCC(CC)c1nn2c(=O)cc(COc3ccc(NC(=O)c4ccccc4Cl)cc3)nc2s1,"inconclusive: 5.62 µM [inhibitor, single point]"
22,COc1ccc2c(c1)cc(C(=O)N[C@H](C(=O)N1CCC(C(=O)O)CC1)C(C)C)n2C,"inconclusive: 10 µM [activator, partial curve, poor fit]"
